According to patent publication US20220025331A1, “METHODS AND SYSTEMS FOR IMPROVING CELLS FOR USE IN THERAPY” (priority 2017, published 2022):

What was measured:
P3 foAC neocartilage = test: Phase 2: cytochalasin D and hyaluronidase treatment of P3 (passaged, not redifferentiated) neocartilage; assay type: cell-based, sheep; conditions: FIG. 12
Experimental: (§1) Chondrocyte Isolation: Fetal ovine articular chondrocytes (foACs) were harvested from the patellofemoral surfaces of 120-day gestation Dorper cross sheep obtained as medical waste (UC Davis School of Veterinary Medicine). Cartilage from the whole surface of both condyles and the trochlear groove was minced into approximately 1 mm^3 pieces, then washed and centrifuged (500 G for 5 minutes) three times with Dulbecco's Modified Eagle Medium containing 4.5 g/L glucose and GlutaMAX (DMEM; Gibco) and 2% (v/v) penicillin/streptomycin/fungizone (PSF; Lonza). The tissue was digested in 0.2% (w/v) collagenase type II (Worthington) in DMEM containing 3% (v/v) fetal bovine serum (FBS; Atlanta Biologicals) for 18 hours at 37° C. with gentle rocking. […]
(§2) Chondrocyte Expansion and Redifferentiation: Previously frozen P0 foACs were seeded in T-225 flasks at 1.5×10^4 cells/cm^2 and expanded in chemically defined chondrogenic medium (CHG medium) (DMEM containing 1% PSF, 1% ITS+ premix (BD Biosciences), 1% non-essential amino acids (Gibco), 100 nM dexamethasone (Sigma), 50 mg/mL ascorbate-2-phosphate (Sigma), 40 g/mL L-proline (Sigma), and […] sodium pyruvate (Sigma)) with 2% FBS and chondrogenically tuned TFP supplementation (1 ng/mL TGF-μ1, 5 ng/mL bFGF, 10 ng/mL PDGF; al from PeproTech). […] Following dissociation of the aggregates, cells were filtered through a 70 μm cell strainer and counted. […]

P3R foAC neocartilage = test: Phase 2: cytochalasin D and hyaluronidase treatment of P3R (passaged, redifferentiated) neocartilage; assay type: cell-based, sheep; conditions: FIG. 8
Experimental: as §1, §2

hyaluronidase was tested, and the construct morphology (P3 foAC neocartilage) was “rounded neocartilage with a diffuse void space in the center of the construct” and the construct morphology (P3R foAC neocartilage) was “formation of a diffuse void region in the center of the constructs”.
